Measurements from article PMC3154951.
Results are given in words; binding and its absence hold for the method and conditions named. Some results given as binding are weak or reduced against the parent protein; the word gives no strength.

Biological target: T1, full-length MLS-1 bait (C. elegans) (UniProt O17212)
T1 sequence: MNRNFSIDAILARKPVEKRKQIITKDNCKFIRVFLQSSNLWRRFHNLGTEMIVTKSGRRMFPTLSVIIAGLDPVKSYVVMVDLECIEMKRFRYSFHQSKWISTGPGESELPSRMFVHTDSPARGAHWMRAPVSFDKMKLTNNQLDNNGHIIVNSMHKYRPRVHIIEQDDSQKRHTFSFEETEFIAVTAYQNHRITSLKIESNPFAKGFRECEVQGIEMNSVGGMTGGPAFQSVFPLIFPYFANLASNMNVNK
Experiment: two-hybrid; yeast two-hybrid; mls-1 bait in pLexA-NLS, unc-37 prey from the pACT-RB1 cDNA library

B1: UNC-37 prey, residues 70-612 (entire WD repeat domain) (domain or fragment, UniProt O02482 70-612)
chain: EFIMQSLAPQLSQDNQANCLAALEAFKTASPRENGNGAPALPPGFPPGAAGMLGMMPNMPFGMSPAMSQLFNQFASPHVNGGDGAGGSSGGASEAKKAKLEDPDDGELEIDVTNDDHPSTASNGGAANKNGRDSTNSVASSGASTPSIASNSRARQQQQPLAGLQGLEQMNFLAGFNPNLLRQASAAGGFNFLNDPHAQARLAAAIGQIGSRPAYSFKIVDGGVPTPTSFPPDAQKGPGIPTGLKKKMELNHGEVVCAATISRDNSRVYTGGKGCVKIWDVKESDISGATVVNRPPIASLDCLKENYIRSCKLFEDGNTLLIGGEASTVALWDLTTETKTLDLETDSQACYALAMSPDEKLLFACLADGNILIYDIHNKVKVGTLPGHQDGASCLDLSKDGTKLWSGGLDNSVRCWDLAQRKEVAKHDFASQVFSLGCCPNDEWVAVGMENNYVEVLSTTGKEKYQLTQHESCVLSLKFAHSGKFFISTGKDNALNAWRTPYGASLFQLKENSSVLSCDISFDDSLIVTGSGEKKATLYAVEY
B1 was tested, and the binding was “binds”.
